Results reported in PubChem BioAssay AID540256 (National Center for Advancing Translational Sciences (NCATS), 2011).
In all, about 300,000 compounds went through this assay and about 3,700 (1.2%) were called active. This list was built around the results that the source calls inconclusive (neither active nor inactive); the mix of calls is not that of the screen. Calls come from the whole dose curve; tested in HEK293 cells. A potency beside an inconclusive call is a rough fit, not a confirmed value.

Assay: qHTS for Inhibitors of binding or entry into cells for Lassa Virus; note: nearly all actives have a fitted effect of over 50% in size
Conditions: Lassa virus pseudotype entry inhibition, cell reporter; series mostly up to 37.9 µM
Potency is the fitted concentration of half-maximal effect.

| SMILES | Potency |
| --- | --- |
| c1csc(CN2CCN(Cc3cccs3)C2c2cccs2)c1 | inconclusive: 6.31 µM [activator, partial curve] |
| CCOc1ccc(OCc2ccc(C(=O)Nc3cccnc3)o2)cc1 | inconclusive: 4.61 µM [activator, single point] |
| COc1ccc(Cl)cc1NC(=O)N1CCN(c2ccccc2OC)CC1 | inconclusive: 35.5 µM [inhibitor, single point] |
| O=C(OC(C(=O)NC1CCCC1)c1ccccc1F)c1ccco1 (stereo not given) | inconclusive: 29.1 µM [activator, single point] |
| COc1ccc(COC(=O)NN=C2C[C@@H](O)[C@@H](O)[C@@H]3[C@H]4C(=O)N(C5CCCCC5)C(=O)[C@@H]4CC[C@H]23)cc1 | inconclusive: 0.596 µM [inhibitor, partial curve, poor fit] |
| CCOc1ccc(N(CC(=O)N2CCCCC2)S(=O)(=O)c2ccc(Cl)cc2)cc1 | inconclusive: 35.5 µM [inhibitor, single point] |
| O=C(Nc1cccs1)Nc1ccc(Br)cc1F | inconclusive: 2 µM [activator, partial curve, poor fit] |
| CCOC(=O)c1c(C)nc(C(Cl)(Cl)Cl)nc1N | inactive |
| S=C(NNc1ccnc2cc(Cl)ccc12)Nc1ccccc1Cl | inconclusive: 35.5 µM [inhibitor, single point] |
| COc1ccc(S(=O)(=O)N2CCN(Cc3nc4ccc(C)cc4o3)CC2)cc1Cl | inactive |
| CCCc1cc(SCC(=O)Nc2c(C)n(C)n(-c3ccccc3)c2=O)n2c(nc3ccccc32)c1C#N | inconclusive: 4.61 µM [inhibitor, single point] |
| C#CCn1cc(/C=N/NC(=O)c2cc3ccccc3o2)c2ccccc21 | inconclusive: 35.5 µM [inhibitor, partial curve, poor fit] |
| CC/C(=N\N1CCCCCC1)c1c(O)n(-c2ccc(C)cc2)c(=O)[nH]c1=O | active: 0.398 µM |
| Cc1ccc(C)n1-c1cc(S(=O)(=O)N2CCOCC2)ccc1N1CCCC1 | inconclusive: 29.1 µM [inhibitor, single point] |
| O=C(c1ccc(Cl)cc1)c1oc2ccccc2c1CS(=O)c1ccccc1 (stereo not given) | inconclusive: 29.1 µM [inhibitor, single point] |
| Cc1onc(C(=O)N2CCN(Cc3ccccc3)CC2)c1[N+](=O)[O-] | inactive |
| CC(C)(C)NCCCOc1ccc(Cl)cc1C(C)(C)C | inconclusive: 20.6 µM [inhibitor, single point] |
| Cc1ccc(NCc2nnc(SCCN3CCCCC3)n2CC2CCCO2)cc1Cl (stereo not given) | inconclusive: 29.1 µM [inhibitor, partial curve, poor fit] |
| Cc1cc(=O)[nH]c(N/N=C/c2c(C)oc3ccccc23)n1 | inactive |
| CCOC(=O)c1sc2nc(C)nc(NCc3ccc(F)cc3)c2c1C | inconclusive: 17.8 µM [inhibitor, single point] |
| COc1ccc(N2CCN(Cc3csc(C)c3-c3ccc(C)cc3)CC2)cc1 | inconclusive: 35.5 µM [inhibitor, single point] |
| Cc1cc(F)ccc1S(=O)(=O)Nc1ccccc1C(=O)Nc1ncn[nH]1 | inactive |

2 compounds picked at random from those above, as already listed:

| SMILES | Potency |
| --- | --- |
| Cc1cc(F)ccc1S(=O)(=O)Nc1ccccc1C(=O)Nc1ncn[nH]1 | inactive |
| Cc1onc(C(=O)N2CCN(Cc3ccccc3)CC2)c1[N+](=O)[O-] | inactive |

Later entries:

| SMILES | Potency |
| --- | --- |
| CCOc1ccccc1CNC(=O)C1CCCN(c2ncnc3c2nc2n3CCCCC2)C1 (stereo not given) | inconclusive: 11.2 µM [inhibitor, partial curve, poor fit] |
| S=c1[nH]nc(-c2ccccc2)n1/N=C/c1cccc(Br)c1 | inconclusive: 3.98 µM [inhibitor, full curve, poor fit] |
| CC1CCCC(C)N1C(=O)COC(=O)/C=C/c1ccc(Br)o1 (stereo not given) | inactive |
| Cc1ccc(C)c(N2CCN(C(=O)c3cc4c(=O)n(Cc5ccccc5)ccc4nc3C)CC2)c1 | inconclusive: 11.2 µM [inhibitor, partial curve, poor fit] |
| Nc1ccc(Nc2nc3ccccc3[nH]2)cc1 | inconclusive: 3.55 µM [activator, partial curve] |
| CCOCCCNCc1ccc(OC)cc1 | inactive |
| CCCn1c(=O)c2c(nc3n2CCN3Cc2ccco2)n(C)c1=O | inactive |
| COc1cccc(CSc2nc3ccccc3cc2C=O)c1 | inconclusive: 12.6 µM [inhibitor, partial curve, poor fit] |
| COc1ccc(OC)c(NC(=O)CS(=O)(=O)c2cn(CC(=O)N3CCOCC3)c3ccccc23)c1 | inactive |
| CCCn1c(=O)n(C)c(=O)c2c(SCC(=O)NC34CC5CC(CC(C5)C3)C4)nc(CC(C)C)nc21 | inconclusive: 14.6 µM [inhibitor, partial curve, poor fit] |
| COC(=O)C1CN(C#N)N(c2ccc(Cl)cc2)C12c1ccccc1-c1ccccc12 (stereo not given) | active: 11.2 µM |
| N#CC(c1ccc([N+](=O)[O-])cc1)C(CC(=O)c1ccccc1)c1ccccc1 (stereo not given) | inconclusive: 7.94 µM [inhibitor, partial curve, poor fit] |
| N#CC1(NC(=O)COc2ccc(S(=O)(=O)N3CCCC3)cc2[N+](=O)[O-])CCCCC1 | inactive |
| Cc1ccc(NC(=O)c2ccccc2)s1 | inconclusive: 29.1 µM [inhibitor, single point] |
| CCOC(=O)c1ccc(NC(=S)NC2CCCC2)cc1 | inactive |
| O=C(CSc1nc2nn(-c3ccccc3)c(=O)c-2c2n1CCCCC2)Nc1ccc(F)c(F)c1 | inactive |
| Cc1cc(C)c2[nH]c(=O)c(C(c3nnnn3C(C)(C)C)N(Cc3ccco3)CC3CCCO3)cc2c1 (stereo not given) | inactive |
| CCOC(=O)c1sc(NC(=O)CN2C(=O)NC3(CC(C)CC(C)(C)C3)C2=O)c(C(=O)OCC)c1C (stereo not given) | inactive |
| O=C(O)c1ccc(NC2=C(n3nnc4ccccc43)C(=O)c3ccccc3C2=O)cc1 | inconclusive: 11.2 µM [inhibitor, partial curve, poor fit] |
| O=C(C1CCN(S(=O)(=O)c2cccc3nonc23)CC1)N1CCN(c2cccc(Cl)c2)CC1 | inconclusive: 1.26 µM [inhibitor, partial curve, poor fit] |
| COc1cccc(C(C(=O)NC2CCCCC2)N(C(=O)c2csnn2)C2CC2)c1 (stereo not given) | inconclusive: 0.562 µM [inhibitor, partial curve, poor fit] |
| O=C(Cn1c(C(F)(F)F)nc2ccccc21)OCC(=O)c1c[nH]c2ccccc12 | inconclusive: 1.12 µM [inhibitor, single point] |

Among those listed so far, two contain a tert-butyl group:

| SMILES | Potency |
| --- | --- |
| CC(C)(C)NCCCOc1ccc(Cl)cc1C(C)(C)C | inconclusive: 20.6 µM [inhibitor, single point] |
| Cc1cc(C)c2[nH]c(=O)c(C(c3nnnn3C(C)(C)C)N(Cc3ccco3)CC3CCCO3)cc2c1 (stereo not given) | inactive |

The listing continues.

| SMILES | Potency |
| --- | --- |
| COc1ccc(N2CCN(/C(=N\S(=O)(=O)c3ccc(C)cc3)Nc3nc(C)cc(C)n3)CC2)cc1 | active: 8.2 µM |
| Cc1nn(-c2ccc(F)cc2)c(-n2cccc2)c1C(=O)NCCc1ccc(Cl)cc1 | inconclusive: 35.5 µM [inhibitor, single point] |
| Cc1ccc2c(Cl)cc(Cl)c(O)c2n1 | inconclusive: 8.91 µM [inhibitor, partial curve, poor fit] |
| Cn1c(SCc2nc(-c3ccccc3)no2)nnc1-c1cccs1 | inconclusive: 23.1 µM [activator, partial curve, poor fit] |
| Cn1c(=O)c(C(=O)c2ccccc2)nc2ccccc21 | inactive |
| COc1ccc2sc(N(Cc3cccnc3)C(=O)C3CCCCC3)nc2c1 | inconclusive: 35.5 µM [inhibitor, single point] |
| CCOC(=O)c1cccc(NC(=O)c2cc3ccccn3n2)c1 | inconclusive: 3.16 µM [activator, partial curve, poor fit] |
| CCCCOc1ccc(C(=O)N/C(=C\c2ccc(OC)cc2)C(=O)OCc2ccco2)cc1 | inconclusive: 11.2 µM [inhibitor, partial curve, poor fit] |
| CCN(CC)S(=O)(=O)c1cc(C(=O)Nc2ccccc2[N+](=O)[O-])ccc1Cl | inconclusive: 35.5 µM [inhibitor, single point] |
| CCc1ccc(-c2cn(C3CCCCC3)c(=S)[nH]2)cc1 | inactive |
| COc1ccc(NC(=O)C(Cc2ccccc2)NS(=O)(=O)c2ccc3c(c2)CCC(=O)N3)c(OC)c1 (stereo not given) | inconclusive: 3.16 µM [inhibitor, partial curve, poor fit] |
| O=C(c1ccc(F)cc1)C(CCCCCC(CN1CCOCC1)C(=O)c1ccc(F)cc1)CN1CCOCC1 (stereo not given) | inconclusive: 35.5 µM [inhibitor, single point] |
| CCOC(=O)C1(Cc2cccc(Cl)c2)CCCN(C(=O)c2ccoc2C)C1 (stereo not given) | inconclusive: 28.2 µM [inhibitor, partial curve, poor fit] |
| CCN(CC)CC(=O)Nc1sc2c(c1C(=O)c1ccccc1C)CCC2 | inconclusive: 4.47 µM [activator, single point] |
| Cc1ccccc1C(=O)NNC(=O)c1ccncc1 | inconclusive: 12.6 µM [activator, single point] |
| COc1cccc(C(=O)Nc2cc3c(cc2Br)OCCCO3)c1 | inconclusive: 22.4 µM [inhibitor, single point] |
| Cc1ccc(C(=O)Nc2ccn(Cc3ccc(F)cc3)n2)o1 | inactive |
| O=C(C(Sc1ccccc1)c1ccccc1)N1CCN(c2ccccc2F)CC1 (stereo not given) | inconclusive: 18.3 µM [inhibitor, single point] |
| COc1cccc(-n2c(SCC(=O)Nc3c(C)cc(C)cc3C)nc3c([nH]c4ccccc43)c2=O)c1 | inconclusive: 2.24 µM [inhibitor, full curve, poor fit] |
| COc1cccc(C2CC(c3cccc(Br)c3)n3ncnc3N2)c1 (stereo not given) | inconclusive: 23.1 µM [inhibitor, partial curve, poor fit] |
| O=C(c1cccc(S(=O)(=O)N2CCc3ccccc32)c1)N1CCOCC1 | inactive |

Two successive compounds out of the list so far:

| SMILES | Potency |
| --- | --- |
| COc1ccc(N2CCN(/C(=N\S(=O)(=O)c3ccc(C)cc3)Nc3nc(C)cc(C)n3)CC2)cc1 | active: 8.2 µM |
| Cc1nn(-c2ccc(F)cc2)c(-n2cccc2)c1C(=O)NCCc1ccc(Cl)cc1 | inconclusive: 35.5 µM [inhibitor, single point] |
